This test deals with RIP3, bait of the pull-down analysed by mass spectrum (not stated (human or mouse cDNA cloned)) (UniProt Q9Y572). The experiment in a line: affinity purification with mass spectrometry; RIP3 interaction pull-down proteins analysed by mass spectrum; cells, bait and conditions not told.

The chains behind the UniProt entries cited, without tags or fusion partners.
UniProt Q9Y572: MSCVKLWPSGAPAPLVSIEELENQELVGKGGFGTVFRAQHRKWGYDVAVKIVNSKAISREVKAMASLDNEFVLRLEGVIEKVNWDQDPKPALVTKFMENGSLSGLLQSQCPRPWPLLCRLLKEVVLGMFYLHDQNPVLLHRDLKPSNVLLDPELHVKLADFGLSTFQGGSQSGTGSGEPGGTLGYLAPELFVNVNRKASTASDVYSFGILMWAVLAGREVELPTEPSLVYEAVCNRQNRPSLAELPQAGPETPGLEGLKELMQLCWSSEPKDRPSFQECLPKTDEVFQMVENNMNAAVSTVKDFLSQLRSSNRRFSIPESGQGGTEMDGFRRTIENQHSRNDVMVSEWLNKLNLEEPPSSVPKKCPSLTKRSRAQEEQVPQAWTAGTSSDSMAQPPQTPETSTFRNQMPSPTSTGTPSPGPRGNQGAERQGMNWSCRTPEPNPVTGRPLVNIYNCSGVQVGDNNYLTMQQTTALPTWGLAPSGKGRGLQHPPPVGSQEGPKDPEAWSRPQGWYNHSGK
UniProt Q99873: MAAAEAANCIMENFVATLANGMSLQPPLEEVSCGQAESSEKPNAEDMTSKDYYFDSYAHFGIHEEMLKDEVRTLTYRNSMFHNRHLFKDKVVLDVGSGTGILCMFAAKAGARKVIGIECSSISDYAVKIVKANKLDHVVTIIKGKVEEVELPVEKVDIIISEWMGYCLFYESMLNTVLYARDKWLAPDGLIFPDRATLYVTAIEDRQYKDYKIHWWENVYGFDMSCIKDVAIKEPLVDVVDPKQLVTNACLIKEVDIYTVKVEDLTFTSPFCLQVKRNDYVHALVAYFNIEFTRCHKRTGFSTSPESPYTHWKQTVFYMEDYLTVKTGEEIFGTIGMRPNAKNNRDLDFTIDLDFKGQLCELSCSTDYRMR

Among the data in paper PMC10067857 are binding values, retold here.

These are yes or no findings as the source states them, for the method shown. In cells and extracts the contact can be indirect. A yes stands for co-enrichment or nearness to the bait. Other partners may have been found.

Consider “PRMT1 identified by mass spectrum in the RIP3 pull-down (from UniProt Q99873 1-371) (enzyme)”, for which the binding entry is “binds”.
